Article PMC3181323
No constants are given. Whether binding was seen depends on the method and setting. In cells and extracts the contact can be indirect. Some results given as binding are weak or reduced against the parent protein; the word gives no strength.

By UniProt entry, the sequences of proteins in these tests, tags left out.
UniProt Q80Y84: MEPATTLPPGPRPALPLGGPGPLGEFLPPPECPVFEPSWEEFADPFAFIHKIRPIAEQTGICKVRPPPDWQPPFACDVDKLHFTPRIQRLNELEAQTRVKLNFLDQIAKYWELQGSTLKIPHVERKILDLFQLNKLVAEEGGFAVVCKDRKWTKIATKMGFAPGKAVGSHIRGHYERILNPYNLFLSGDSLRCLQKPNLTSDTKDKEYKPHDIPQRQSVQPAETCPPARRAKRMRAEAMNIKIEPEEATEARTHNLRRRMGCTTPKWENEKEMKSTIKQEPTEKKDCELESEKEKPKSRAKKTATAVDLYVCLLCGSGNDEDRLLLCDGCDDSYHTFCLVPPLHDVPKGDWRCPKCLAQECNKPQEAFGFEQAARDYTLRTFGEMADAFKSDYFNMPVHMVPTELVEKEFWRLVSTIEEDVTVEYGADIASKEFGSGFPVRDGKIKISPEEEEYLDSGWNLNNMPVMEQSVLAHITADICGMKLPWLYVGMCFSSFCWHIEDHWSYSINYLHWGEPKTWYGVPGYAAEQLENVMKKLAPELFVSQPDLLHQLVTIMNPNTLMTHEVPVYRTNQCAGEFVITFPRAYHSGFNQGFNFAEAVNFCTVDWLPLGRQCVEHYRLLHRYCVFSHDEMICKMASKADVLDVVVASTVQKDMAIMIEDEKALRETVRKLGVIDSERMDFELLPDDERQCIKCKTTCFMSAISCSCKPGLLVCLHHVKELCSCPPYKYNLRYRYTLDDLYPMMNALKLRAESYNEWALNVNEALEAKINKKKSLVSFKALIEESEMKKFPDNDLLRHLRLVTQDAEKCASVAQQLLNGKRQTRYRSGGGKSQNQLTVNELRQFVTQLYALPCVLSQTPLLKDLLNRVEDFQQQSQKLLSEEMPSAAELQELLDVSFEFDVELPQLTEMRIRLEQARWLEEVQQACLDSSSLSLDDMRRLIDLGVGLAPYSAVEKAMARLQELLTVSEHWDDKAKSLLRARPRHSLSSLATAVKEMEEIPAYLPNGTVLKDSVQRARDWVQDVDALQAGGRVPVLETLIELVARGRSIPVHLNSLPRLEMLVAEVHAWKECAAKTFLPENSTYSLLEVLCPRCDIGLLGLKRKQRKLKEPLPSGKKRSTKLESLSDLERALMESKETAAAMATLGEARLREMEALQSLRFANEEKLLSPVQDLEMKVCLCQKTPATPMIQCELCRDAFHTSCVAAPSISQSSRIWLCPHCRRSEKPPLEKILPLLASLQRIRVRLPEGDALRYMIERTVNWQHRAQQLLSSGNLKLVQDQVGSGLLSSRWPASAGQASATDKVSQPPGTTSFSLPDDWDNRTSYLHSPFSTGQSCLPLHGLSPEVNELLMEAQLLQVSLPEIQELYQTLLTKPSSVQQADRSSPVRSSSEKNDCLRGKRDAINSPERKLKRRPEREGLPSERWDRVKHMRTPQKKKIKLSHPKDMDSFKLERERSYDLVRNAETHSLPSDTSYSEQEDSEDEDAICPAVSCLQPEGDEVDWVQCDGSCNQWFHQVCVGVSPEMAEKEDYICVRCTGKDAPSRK

Molecular target: Jarid1b (Kdm5b) (mouse (endogenous in MN-tsLT)) (UniProt Q80Y84)
Test: co-IP; total cell lysate of 8x10^6 senescent MN-tsLT cells (4 days at 39°C); immunoprecipitation of endogenous Jarid1b with 8 µl anti-Jarid1b (#3273, Cell Signaling Technology) in ELB (250 mM NaCl, 50 mM Hepes pH 7.3, 0.1% NP40, protease inhibitors); western blot with anti-Rb (#554136, BD Pharmingen)

binding: binds
B1: Rb (protein, UniProt P13405 1-921)
chain: MPPKAPRRAAAAEPPPPPPPPPREDDPAQDSGPEELPLARLEFEEIEEPEFIALCQKLKVPDHVRERAWLTWEKVSSVDGILEGYIQKKKELWGICIFIAAVDLDEMPFTFTELQKSIETSVYKFFDLLKEIDTSTKVDNAMSRLLKKYNVLCALYSKLERTCELIYLTQPSSALSTEINSMLVLKISWITFLLAKGEVLQMEDDLVISFQLMLCVVDYFIKFSPPALLREPYKTAAIPINGSPRTPRRGQNRSARIAKQLENDTRIIEVLCKEHECNIDEVKNVYFKNFIPFINSLGIVSSNGLPEVESLSKRYEEVYLKNKDLDARLFLDHDKTLQTDPIDSFETERTPRKNNPDEEANVVTPHTPVRTVMNTIQQLMVILNSASDQPSENLISYFNNCTVNPKENILKRVKDVGHIFKEKFANAVGQGCVDIGVQRYKLGVRLYYRVMESMLKSEEERLSIQNFSKLLNDNIFHMSLLACALEVVMATYSRSTLQHLDSGTDLSFPWILNVLNLKAFDFYKVIESFIKVEANLTREMIKHLERCEHRIMESLAWLSDSPLFDLIKQSKDGEGPDNLEPACPLSLPLQGNHTAADMYLSPLRSPKKRTSTTRVNSAANTETQAASAFHTQKPLKSTSLALFYKKVYRLAYLRLNTLCARLLSDHPELEHIIWTLFQHTLQNEYELMRDRHLDQIMMCSMYGICKVKNIDLKFKIIVTAYKDLPHAAQETFKRVLIREEEFDSIIVFYNSVFMQRLKTNILQYASTRPPTLSPIPHIPRSPYKFSSSPLRIPGGNIYISPLKSPYKISEGLPTPTKMTPRSRILVSIGESFGTSEKFQKINQMVCNSDRVLKRSAEGGNPPKPLKKLRFDIEGADEADGSKHLPAESKFQQKLAEMTSTRTRMQKQRMNESKDVSNKEEK
